These results are taken from article PMC12631002, “Bioactivity Profiles of Progressively Ring‐Fluorinated Cyclohexyl Motifs in the WKYMVm Peptide as Formylpeptide FPR2 Agonists and in Keto‐Piperazines as Antitrypanosome Agents” (Chembiochem, 2025).

Protein sequences, listed by entry. Tags and fused reporters are not part of them. Lines headed by an entry give the natural chain unless they say otherwise; changes in a name come on top.
UniProt P25090: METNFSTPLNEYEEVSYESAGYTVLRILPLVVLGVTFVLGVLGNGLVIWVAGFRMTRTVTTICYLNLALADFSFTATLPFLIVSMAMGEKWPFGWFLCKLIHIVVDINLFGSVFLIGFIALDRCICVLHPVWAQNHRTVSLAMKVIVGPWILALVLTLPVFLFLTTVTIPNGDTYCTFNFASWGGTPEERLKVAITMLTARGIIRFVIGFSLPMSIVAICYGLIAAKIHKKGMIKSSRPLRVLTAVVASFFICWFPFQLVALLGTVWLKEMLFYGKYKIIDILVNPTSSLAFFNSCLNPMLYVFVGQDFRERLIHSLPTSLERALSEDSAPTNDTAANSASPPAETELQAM
UniProt P32121: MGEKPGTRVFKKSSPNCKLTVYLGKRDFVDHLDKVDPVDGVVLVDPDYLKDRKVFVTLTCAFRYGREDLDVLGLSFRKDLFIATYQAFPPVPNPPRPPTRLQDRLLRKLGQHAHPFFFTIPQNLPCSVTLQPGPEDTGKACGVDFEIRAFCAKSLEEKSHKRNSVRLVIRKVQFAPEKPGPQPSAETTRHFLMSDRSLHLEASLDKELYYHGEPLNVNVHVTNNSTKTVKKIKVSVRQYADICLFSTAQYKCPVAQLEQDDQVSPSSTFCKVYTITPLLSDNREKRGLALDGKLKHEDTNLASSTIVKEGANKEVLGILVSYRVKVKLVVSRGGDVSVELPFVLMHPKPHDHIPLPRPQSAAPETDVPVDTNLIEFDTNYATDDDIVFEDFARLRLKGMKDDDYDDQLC

These are yes or no findings as the source states them, for the method shown. In cells and extracts the contact can be indirect. Binding calls can cover weak binding; strength is not graded here.

The assay addresses FPR2-Rluc8 (human) (UniProt P25090). Description: FRET or BRET; HEK293 cells transiently transfected with FPR2-Rluc8 (donor) and mGsi-Venus or β-arrestin 2-YFP (acceptor); 37 °C, HBSS, coelenterazine H 5 μM; stimulated with increasing concentrations of WKYMVm or analogs; acceptor:donor ratio less that of untreated cells. (In general: In BRET a luciferase serves as donor, and the signal depends on an acceptor being close.)

For the substance “β-arrestin 2-YFP (from UniProt P32121 1-409)”, the binding result was “binds”.
